Results reported in the supplement of paper PMC10849652.
The other results are listed elsewhere or left out.

Sequences of proteins named here, by UniProt entry; tags and fusion partners are left off. A change or cut given only in a name is not applied to a line headed by its entry.
UniProt Q96AE4: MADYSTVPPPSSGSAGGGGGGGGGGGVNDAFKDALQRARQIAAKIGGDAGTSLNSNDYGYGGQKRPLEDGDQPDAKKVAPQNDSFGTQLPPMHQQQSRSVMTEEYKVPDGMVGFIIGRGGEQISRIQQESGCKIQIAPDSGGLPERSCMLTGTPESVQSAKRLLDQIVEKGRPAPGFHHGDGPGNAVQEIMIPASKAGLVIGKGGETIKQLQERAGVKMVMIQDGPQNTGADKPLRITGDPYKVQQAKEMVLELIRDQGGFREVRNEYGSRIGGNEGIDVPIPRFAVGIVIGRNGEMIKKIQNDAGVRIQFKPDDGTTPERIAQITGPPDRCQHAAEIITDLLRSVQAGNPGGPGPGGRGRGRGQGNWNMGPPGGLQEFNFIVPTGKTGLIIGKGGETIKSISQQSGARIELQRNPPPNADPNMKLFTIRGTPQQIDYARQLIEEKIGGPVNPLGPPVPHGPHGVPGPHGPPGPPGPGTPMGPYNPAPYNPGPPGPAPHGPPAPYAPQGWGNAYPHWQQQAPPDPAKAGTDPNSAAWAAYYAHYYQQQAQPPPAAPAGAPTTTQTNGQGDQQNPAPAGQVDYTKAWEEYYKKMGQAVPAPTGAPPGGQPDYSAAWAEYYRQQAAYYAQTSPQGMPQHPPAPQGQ
UniProt P54803: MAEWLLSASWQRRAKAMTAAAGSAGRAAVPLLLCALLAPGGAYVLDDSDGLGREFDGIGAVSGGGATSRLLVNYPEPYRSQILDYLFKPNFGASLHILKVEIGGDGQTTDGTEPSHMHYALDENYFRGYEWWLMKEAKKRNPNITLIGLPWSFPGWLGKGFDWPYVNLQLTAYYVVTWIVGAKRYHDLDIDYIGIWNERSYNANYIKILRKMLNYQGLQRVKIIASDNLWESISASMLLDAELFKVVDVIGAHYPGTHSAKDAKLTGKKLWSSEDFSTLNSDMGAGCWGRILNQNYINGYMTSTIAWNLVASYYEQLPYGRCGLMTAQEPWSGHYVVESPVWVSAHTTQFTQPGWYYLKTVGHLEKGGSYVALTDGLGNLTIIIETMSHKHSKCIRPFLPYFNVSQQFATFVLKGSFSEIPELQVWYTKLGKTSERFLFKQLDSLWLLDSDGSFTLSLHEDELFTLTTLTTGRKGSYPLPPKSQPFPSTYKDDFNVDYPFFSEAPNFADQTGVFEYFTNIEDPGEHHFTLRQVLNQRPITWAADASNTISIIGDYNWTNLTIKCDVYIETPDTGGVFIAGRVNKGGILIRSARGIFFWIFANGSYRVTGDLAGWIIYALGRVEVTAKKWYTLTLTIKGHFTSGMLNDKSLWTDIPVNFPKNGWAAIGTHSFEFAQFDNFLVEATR
UniProt Q9C0B1, whole entry, looked up: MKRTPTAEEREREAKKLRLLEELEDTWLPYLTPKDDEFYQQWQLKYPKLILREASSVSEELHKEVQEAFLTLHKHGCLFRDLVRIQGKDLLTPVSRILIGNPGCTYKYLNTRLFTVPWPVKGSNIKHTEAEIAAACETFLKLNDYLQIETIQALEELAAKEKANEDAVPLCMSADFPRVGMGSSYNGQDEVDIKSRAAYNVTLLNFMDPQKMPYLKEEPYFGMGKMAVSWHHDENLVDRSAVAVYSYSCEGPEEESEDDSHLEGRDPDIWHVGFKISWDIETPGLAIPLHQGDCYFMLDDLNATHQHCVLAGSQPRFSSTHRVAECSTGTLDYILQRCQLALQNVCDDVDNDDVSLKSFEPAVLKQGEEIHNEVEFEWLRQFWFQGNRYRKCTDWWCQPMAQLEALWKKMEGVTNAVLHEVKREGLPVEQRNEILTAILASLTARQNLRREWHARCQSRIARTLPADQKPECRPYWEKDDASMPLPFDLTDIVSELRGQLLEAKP
UniProt Q9UJY4: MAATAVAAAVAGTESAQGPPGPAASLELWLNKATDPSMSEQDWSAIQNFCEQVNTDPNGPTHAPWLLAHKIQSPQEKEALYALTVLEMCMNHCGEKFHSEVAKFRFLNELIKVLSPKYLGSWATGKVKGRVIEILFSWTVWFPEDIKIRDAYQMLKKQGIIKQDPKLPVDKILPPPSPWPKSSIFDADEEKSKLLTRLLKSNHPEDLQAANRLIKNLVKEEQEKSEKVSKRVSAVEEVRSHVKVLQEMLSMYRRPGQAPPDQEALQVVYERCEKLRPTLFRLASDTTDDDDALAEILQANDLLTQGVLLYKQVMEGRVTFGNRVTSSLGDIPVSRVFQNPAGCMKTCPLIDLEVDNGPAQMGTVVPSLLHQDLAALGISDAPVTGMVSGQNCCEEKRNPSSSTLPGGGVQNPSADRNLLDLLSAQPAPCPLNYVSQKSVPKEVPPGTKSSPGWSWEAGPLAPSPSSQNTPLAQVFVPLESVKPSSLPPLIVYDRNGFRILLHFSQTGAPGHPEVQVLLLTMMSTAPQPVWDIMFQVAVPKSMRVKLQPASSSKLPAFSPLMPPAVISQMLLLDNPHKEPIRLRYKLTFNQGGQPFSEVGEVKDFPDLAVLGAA
UniProt P02794, whole entry, looked up: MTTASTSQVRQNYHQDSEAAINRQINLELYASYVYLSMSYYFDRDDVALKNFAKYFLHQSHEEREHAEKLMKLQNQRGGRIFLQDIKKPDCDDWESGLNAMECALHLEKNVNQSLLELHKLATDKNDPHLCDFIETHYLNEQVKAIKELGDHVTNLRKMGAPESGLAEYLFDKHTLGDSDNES
UniProt A2VDF0: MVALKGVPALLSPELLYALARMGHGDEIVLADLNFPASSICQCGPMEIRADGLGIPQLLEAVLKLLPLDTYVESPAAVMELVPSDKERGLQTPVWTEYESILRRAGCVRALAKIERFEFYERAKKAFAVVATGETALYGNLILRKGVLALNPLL
UniProt P60520, whole entry, looked up: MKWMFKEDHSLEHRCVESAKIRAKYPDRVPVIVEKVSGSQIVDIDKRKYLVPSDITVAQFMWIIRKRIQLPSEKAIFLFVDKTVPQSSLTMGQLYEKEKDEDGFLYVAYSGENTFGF
UniProt Q68DX3: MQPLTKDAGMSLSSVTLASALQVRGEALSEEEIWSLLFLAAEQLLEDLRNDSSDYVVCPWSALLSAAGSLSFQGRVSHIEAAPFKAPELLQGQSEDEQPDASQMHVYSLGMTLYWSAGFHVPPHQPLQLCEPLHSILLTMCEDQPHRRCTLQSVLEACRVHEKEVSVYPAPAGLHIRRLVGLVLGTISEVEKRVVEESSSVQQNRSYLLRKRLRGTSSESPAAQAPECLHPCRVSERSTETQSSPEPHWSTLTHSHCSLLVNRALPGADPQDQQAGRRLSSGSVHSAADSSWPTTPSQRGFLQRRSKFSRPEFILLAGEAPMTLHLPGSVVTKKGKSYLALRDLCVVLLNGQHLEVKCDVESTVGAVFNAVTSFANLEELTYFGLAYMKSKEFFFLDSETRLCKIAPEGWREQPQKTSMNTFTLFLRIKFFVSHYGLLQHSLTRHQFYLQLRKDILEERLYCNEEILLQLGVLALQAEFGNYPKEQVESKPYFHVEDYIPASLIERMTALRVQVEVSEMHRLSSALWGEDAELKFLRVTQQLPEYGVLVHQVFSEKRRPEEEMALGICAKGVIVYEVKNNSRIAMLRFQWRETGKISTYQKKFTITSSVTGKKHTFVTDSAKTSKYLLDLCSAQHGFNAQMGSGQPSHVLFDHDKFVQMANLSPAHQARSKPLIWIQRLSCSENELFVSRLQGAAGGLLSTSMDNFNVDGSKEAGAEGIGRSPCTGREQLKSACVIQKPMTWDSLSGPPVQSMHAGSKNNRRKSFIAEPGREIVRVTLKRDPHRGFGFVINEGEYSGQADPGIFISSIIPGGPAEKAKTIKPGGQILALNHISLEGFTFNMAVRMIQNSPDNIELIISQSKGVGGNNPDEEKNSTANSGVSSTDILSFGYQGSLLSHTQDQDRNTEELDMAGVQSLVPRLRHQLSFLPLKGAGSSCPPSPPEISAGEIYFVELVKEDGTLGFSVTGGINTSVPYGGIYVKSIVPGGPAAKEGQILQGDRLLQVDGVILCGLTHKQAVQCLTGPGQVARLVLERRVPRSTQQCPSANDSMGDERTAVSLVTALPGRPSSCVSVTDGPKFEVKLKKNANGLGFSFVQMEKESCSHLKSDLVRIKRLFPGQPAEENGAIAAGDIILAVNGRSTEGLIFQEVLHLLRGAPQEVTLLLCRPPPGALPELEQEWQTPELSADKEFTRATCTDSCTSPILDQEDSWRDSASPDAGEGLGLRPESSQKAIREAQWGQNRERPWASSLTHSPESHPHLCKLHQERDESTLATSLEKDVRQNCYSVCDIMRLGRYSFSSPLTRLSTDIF
UniProt O43716: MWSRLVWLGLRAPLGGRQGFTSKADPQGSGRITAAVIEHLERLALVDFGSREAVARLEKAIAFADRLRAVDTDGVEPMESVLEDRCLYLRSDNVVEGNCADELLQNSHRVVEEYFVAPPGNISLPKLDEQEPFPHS
UniProt P41250: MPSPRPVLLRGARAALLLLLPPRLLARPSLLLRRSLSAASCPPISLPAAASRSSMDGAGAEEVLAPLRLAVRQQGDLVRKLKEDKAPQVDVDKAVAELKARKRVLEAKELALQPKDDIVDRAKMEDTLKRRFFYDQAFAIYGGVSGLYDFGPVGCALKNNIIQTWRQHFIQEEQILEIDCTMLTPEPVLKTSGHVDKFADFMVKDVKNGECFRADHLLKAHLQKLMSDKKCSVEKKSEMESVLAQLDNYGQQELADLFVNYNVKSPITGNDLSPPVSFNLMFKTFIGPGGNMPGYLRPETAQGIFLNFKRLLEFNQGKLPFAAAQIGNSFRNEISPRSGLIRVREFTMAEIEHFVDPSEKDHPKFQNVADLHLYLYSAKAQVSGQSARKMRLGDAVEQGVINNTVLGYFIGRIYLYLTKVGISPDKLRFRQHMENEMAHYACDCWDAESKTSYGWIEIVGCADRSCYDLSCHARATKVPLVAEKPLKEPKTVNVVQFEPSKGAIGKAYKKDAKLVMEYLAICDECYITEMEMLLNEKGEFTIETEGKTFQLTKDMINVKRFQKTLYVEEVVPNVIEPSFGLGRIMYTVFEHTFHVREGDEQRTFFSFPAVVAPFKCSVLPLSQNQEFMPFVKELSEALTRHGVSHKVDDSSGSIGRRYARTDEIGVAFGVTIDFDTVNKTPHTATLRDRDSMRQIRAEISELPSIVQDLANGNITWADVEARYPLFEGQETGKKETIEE
UniProt Q3B7J2: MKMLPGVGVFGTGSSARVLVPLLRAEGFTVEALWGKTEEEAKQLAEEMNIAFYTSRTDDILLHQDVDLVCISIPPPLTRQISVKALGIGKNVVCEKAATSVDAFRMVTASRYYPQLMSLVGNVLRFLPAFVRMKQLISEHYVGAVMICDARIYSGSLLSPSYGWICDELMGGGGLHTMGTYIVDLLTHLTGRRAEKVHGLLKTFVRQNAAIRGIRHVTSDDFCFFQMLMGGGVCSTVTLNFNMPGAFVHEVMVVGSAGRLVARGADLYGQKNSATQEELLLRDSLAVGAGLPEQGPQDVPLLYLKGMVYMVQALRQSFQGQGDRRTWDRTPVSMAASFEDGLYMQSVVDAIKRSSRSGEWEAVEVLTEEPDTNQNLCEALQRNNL
UniProt P50395: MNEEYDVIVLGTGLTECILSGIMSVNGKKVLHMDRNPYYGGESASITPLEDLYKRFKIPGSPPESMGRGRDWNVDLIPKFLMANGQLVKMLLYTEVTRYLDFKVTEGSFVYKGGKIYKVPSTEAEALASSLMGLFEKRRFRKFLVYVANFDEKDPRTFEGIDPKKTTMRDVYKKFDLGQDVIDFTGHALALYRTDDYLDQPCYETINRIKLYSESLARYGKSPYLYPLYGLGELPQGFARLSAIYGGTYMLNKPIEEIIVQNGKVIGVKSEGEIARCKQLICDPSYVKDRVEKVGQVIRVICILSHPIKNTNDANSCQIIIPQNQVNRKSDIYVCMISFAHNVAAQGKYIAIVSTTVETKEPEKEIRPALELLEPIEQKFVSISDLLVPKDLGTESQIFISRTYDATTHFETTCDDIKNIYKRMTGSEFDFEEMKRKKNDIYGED
UniProt Q86SR1: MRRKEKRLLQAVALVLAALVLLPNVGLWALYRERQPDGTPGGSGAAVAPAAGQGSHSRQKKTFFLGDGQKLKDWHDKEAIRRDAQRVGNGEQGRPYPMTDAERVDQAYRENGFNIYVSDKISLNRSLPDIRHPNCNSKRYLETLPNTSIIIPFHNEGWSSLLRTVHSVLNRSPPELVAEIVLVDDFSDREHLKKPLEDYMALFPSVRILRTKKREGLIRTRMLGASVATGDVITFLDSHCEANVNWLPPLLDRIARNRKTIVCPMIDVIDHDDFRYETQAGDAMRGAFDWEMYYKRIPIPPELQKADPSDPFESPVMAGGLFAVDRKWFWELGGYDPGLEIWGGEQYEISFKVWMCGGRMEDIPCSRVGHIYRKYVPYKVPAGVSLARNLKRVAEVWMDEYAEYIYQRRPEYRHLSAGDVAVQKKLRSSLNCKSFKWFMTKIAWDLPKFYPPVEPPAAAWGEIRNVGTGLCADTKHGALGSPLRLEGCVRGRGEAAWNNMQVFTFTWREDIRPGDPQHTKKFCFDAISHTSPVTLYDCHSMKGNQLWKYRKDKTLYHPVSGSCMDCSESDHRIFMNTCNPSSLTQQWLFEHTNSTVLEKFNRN

How the values were obtained:
Assay in all cases: log2 fold change, soluble protein after heating vs DMSO (PISA); higher = thermal stabilisation; K562 lysate, 10 uM; active = over 0.2 and 3.5 SD of the protein, either way, in both replicates (recomputed)
[1] = compound: C#Cc1cccc(Nc2ncnc3cc(OCCOC)c(OCCOC)cc23)c1 [erlotinib]
Summary of the method: (§1)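 To prepare the extract, K562 pellets were dounce-homogenised in PBS pH 7.4 with 1 mM MgCl2, giving crude material at 1 mg/mL protein. This was treated with 10 μM compound for 30 min, then heated in aliquots for 3 min over 48°C-58°C before pooling and addition of NP-40 to 0.5% at 4°C. Centrifugation at 21,000xg for 90 min left soluble protein in the supernatant, which TMTpro 16plex LC-MS/MS quantified with equalised channel sums. Results are log-two fold changes in thermal stability compared with solvent controls, from duplicates.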

[2] = compound: C/C(=N\NC(=O)C1=CC(=CC=C1)S(=O)(=O)N2CCOCC2)/C3=C(C=CC(=C3)Cl)O
Summary of the method: as §1

[3] = compound: C1=CC(=CC=C1C2=NC3=C(N2)C=C(C=C3)C(=O)N)OC4=CC=C(C=C4)Cl
Summary of the method: as §1

[4] = compound: C1=CC2=C(C=CC(=C2)/C=C\3/C(=O)NC(=NCC4=CC=CS4)S3)N=C1
Summary of the method: as §1

[5] = compound: C1=CC2=NC=CN=C2C=C1/C=C/3\C(=O)NC(=O)S3
Summary of the method: as §1

[6] = compound: C1=CC=C(C=C1)C2=NC(=C(N2)C3=CC=NC=C3)C4=CC(=C(C=C4)Cl)O
Summary of the method: as §1

[7] = compound: C1=CC=C2C(=C1)C3=NNC4=CC=CC(=C43)C2=O
Summary of the method: as §1

[8] = compound: C1CCN(C1)C(=O)NC2=CC=CC(=C2)NC3=NC=C(C(=N3)NCCC4=CN=CN4)Br
Summary of the method: as §1

[9] = compound: C1CN(CCC1(CC2=CC=C(C=C2)Cl)N)C3=NC=NC4=C3C=CN4
Summary of the method: as §1

[10] = compound: C1COCCN1CCN2C3=CC=CC=C3N=C2NC(=O)C4=CC(=CC=C4)[N+](=O)[O-] [IRAK-1-4 Inhibitor I]
Summary of the method: as §1

Measured: log2 fold change

FUBP1 (UniProt Q96AE4)
inactive: [1] -0.201 | [2] -0.021 | [3] -0.101 | [4] 0.116 | [5] -0.002 | [6] 0.008 | [7] 0.022 | [8] -0.044 | [9] 0.122 | [10] 0.046

GALC (UniProt P54803)
inactive: [1] 0.005 | [2] 0.04 | [3] 0.008 | [4] 0.043 | [5] -0.033 | [6] 0.001 | [7] -0.033 | [8] 0.031 | [9] 0.059 | [10] -0.005

FTO (UniProt Q9C0B1)
inactive: [1] 0 | [2] -0.203 | [3] -0.016 | [4] -0.016 | [5] 0.046 | [6] -0.004 | [7] 0.015 | [8] 0.018 | [9] 0.007 | [10] 0.032

FRMPD3 (UniProt Q5JV73)
inactive: [1] -0.043 | [2] 0.277 | [3] 0.269 | [4] 0.044 | [5] -0.063 | [6] -0.382 | [7] -0.162 | [10] -0.085

GALNT7 (UniProt H0YAH3)
inactive: [1] 0.434 | [2] 0.056 | [3] -0.091 | [4] -0.053 | [7] 0.023 | [8] 0.138 | [9] 0.008

GALNT11 (UniProt Q8NCW6)
inactive: [1] -0.005 | [2] 0.089 | [3] -0.026 | [4] -0.087 | [6] -0.052 | [7] 0.053 | [8] 0.009 | [9] -0.057 | [10] 0.072

GALNT5 (UniProt Q7Z7M9)
inactive: [1] -0.025 | [2] 0.038 | [3] -0.024 | [4] -0.012 | [5] -0.024 | [6] -0.065 | [7] -0.045 | [8] -0.021 | [9] 0.03 | [10] 0.015

GGA2 (UniProt Q9UJY4)
inactive: [1] -0.014 | [2] 0.042 | [3] 0.064 | [4] 0.016 | [5] 0.019 | [6] 0.014 | [7] -0.054 | [8] 0.074 | [9] 0.034 | [10] 0.01

GDI2 (UniProt Q5SX86)
inactive: [1] 0.123 | [2] 0.118 | [3] 0.007 | [4] 0.077 | [5] -0.087 | [6] 0.217 | [7] 0.147 | [10] 0.098

FTH1 (UniProt P02794)
inactive: [1] -0.006 | [2] -0.066 | [3] -0.038 | [4] 0.041 | [5] -0.023 | [6] 0.002 | [7] 0.013 | [8] 0.032 | [9] 0.023 | [10] -0.045

FOXRED2 (UniProt Q8IWF2)
inactive: [1] -0.016 | [2] 0.073 | [3] -0.003 | [4] 0.027 | [6] 0.031 | [7] -0.066 | [8] -0.204 | [9] 0.002 | [10] 0.055

GBA (UniProt P04062)
inactive: [1] 0.038 | [2] -0.051 | [3] -0.043 | [4] -0.005 | [5] -0.054 | [6] 0.004 | [7] -0.016 | [8] 0.074 | [9] 0.024 | [10] -0.019

FUOM (UniProt A2VDF0)
inactive: [1] -0.066 | [2] 0.406 | [3] -0.23 | [4] 0.053 | [6] 0.043 | [7] -0.089 | [8] -0.147 | [9] 0.022 | [10] 0.018

Two records picked at random from those above:
GBA (UniProt P04062)
inactive: [1] 0.038 | [2] -0.051 | [3] -0.043 | [4] -0.005 | [5] -0.054 | [6] 0.004 | [7] -0.016 | [8] 0.074 | [9] 0.024 | [10] -0.019

FUOM (UniProt A2VDF0)
inactive: [1] -0.066 | [2] 0.406 | [3] -0.23 | [4] 0.053 | [6] 0.043 | [7] -0.089 | [8] -0.147 | [9] 0.022 | [10] 0.018

The list goes on:

GABARAPL2 (UniProt P60520)
inactive: [1] -0.003 | [2] -0.206 | [3] 0.003 | [4] -0.025 | [5] -0.004 | [6] -0.003 | [7] -0.003 | [8] -0.026 | [9] -0.034 | [10] 0.003

GAPVD1 isoform 6 (UniProt Q14C86)
inactive: [1] 0.01 | [2] 0 | [3] -0.051 | [4] 0.01 | [5] 0.019 | [6] 0 | [7] -0.013 | [8] 0.007 | [9] -0.025 | [10] -0.015

G3BP2 (UniProt Q9UN86)
inactive: [1] 0.023 | [2] -0.071 | [3] -0.018 | [4] 0.006 | [5] -0.012 | [6] 0.012 | [7] -0.041 | [8] -0.044 | [9] 0.009 | [10] -0.012

FRMPD2 (UniProt Q68DX3)
inactive: [1] 0 | [2] 0.064 | [3] 0.114 | [4] -0.072 | [7] -0.092 | [8] -0.085 | [9] -0.056

GALNT12 (UniProt Q8IXK2)
inactive: [1] -0.07 | [2] 0.307 | [3] -0.014 | [4] -0.047 | [5] 0.015 | [6] -0.026 | [7] -0.214 | [8] -0.031 | [9] 0.024 | [10] 0.001

GDF15 (UniProt Q99988)
inactive: [1] -0.067 | [2] 0.018 | [3] 0.082 | [4] 0.016 | [6] 0.029 | [7] -0.056 | [10] -0.07

FYTTD1 (UniProt Q96QD9)
inactive: [1] 0.081 | [2] 0.236 | [3] -0.021 | [4] -0.101 | [5] 0 | [7] 0.008 | [8] 0.245 | [9] 0.013

FRMD8 (UniProt Q9BZ67)
inactive: [1] -0.074 | [2] -0.053 | [3] 0.038 | [4] 0.016 | [5] 0.004 | [7] 0.008 | [8] 0.149 | [9] 0.011

GATC (UniProt O43716)
inactive: [1] 0.012 | [2] 0.076 | [3] -0.011 | [4] -0.017 | [6] -0.086 | [7] 0.022 | [8] -0.067 | [9] 0.162 | [10] 0.012

GARS1 (UniProt P41250)
inactive: [1] 0.006 | [2] 0.016 | [3] 0.012 | [4] -0.009 | [5] 0.005 | [6] 0.013 | [7] 0.016 | [8] 0.01 | [9] -0.01 | [10] 0.015

FYB1 isoform 3 (UniProt O15117)
inactive: [1] -0.019 | [2] -0.043 | [3] -0.003 | [4] -0.073 | [5] 0.009 | [6] 0.015 | [7] -0.025 | [8] -0.012 | [9] 0.028 | [10] 0.024

GEMIN4 (UniProt P57678)
inactive: [1] 0.023 | [2] -0.029 | [3] -0.036 | [4] 0.046 | [5] 0.038 | [6] -0.017 | [7] -0.032 | [8] -0.004 | [9] 0.018 | [10] -0.023

GFOD2 (UniProt Q3B7J2)
inactive: [1] 0.022 | [2] -0.114 | [3] 0.203 | [4] -0.368 | [5] -0.051 | [6] 0.144 | [7] -0.095 | [8] -0.002 | [9] 0.108 | [10] -0.069

GDI2 (UniProt P50395)
inactive: [1] -0.009 | [2] 0.038 | [3] -0.004 | [4] 0 | [5] -0.006 | [6] 0 | [7] -0.017 | [8] -0.008 | [9] 0.022 | [10] 0

GALK1 isoform 2 (UniProt P51570)
inactive: [1] 0.021 | [2] 0.022 | [3] 0.01 | [4] -0.076 | [5] -0.024 | [6] -0.015 | [7] -0.031 | [8] 0.023 | [9] 0.058 | [10] 0.042

GALNT10 (UniProt Q86SR1)
inactive: [1] 0.161 | [2] 0.075 | [3] 0.012 | [4] 0.123 | [5] -0.053 | [7] -0.059 | [8] -0.058 | [9] -0.042
